No constants are given. Whether binding was seen depends on the method and setting. Some entries that bind do so weakly or less than the wild type.
How the values were obtained:
[1] = target: cynomolgus TNFR2-His tagged protein (cynomolgus); experiment: ELISA on coated cynoTNFR2-His, OD 450 nm
[2] = target: TNFR2 (as used in the Octet measurement) (UniProt P20333); experiment: Octet (biolayer interferometry), monovalent binding
[3] = target: cynomolgus TNFR2-His tagged protein (cynomolgus); experiment: ELISA

Sequences of proteins named here, by UniProt entry; tags and fusion partners are left off. Residues count along the entry.
UniProt P20333, residues 23-257: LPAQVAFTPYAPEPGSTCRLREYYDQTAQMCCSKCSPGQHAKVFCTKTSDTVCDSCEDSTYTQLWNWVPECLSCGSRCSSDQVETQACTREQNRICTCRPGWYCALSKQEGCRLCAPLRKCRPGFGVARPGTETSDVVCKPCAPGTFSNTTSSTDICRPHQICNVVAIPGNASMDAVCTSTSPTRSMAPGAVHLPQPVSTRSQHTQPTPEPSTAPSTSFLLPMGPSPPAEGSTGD

Measured: binding

B1: humanized antibody h600-25-108 (antibody, V domains shown)
VH: EVQLVESGGGLVQPGGSLRLSCAASGFSLSDYFMTWVRQAPGKGLEWVGIINTGGDSYYATWAKGRFTISRDNSKNTLYLQMNSLRAEDTAVYYCARDTGYGGYDYAGSFDPWGQGTLVTVSS
VL: DIQMTQSPSSVSASVGDRVTITCQASENINSWLAWYQQKPGKAPKLLIYEASKLASGVPSRFSGSGSGTDFTLTISSLQPEDFATYYCQQGYIYIDVGNIFGGGTKVEIK
binds: all assays above

B2: humanized antibody h600-25-71 (antibody, V domains shown)
VH: EVQLVESGGGLVQPGGSLRLSCAASGIDLSSYAMGWVRQAPGKGLEWVGDISTSGNAYYATWVKGRFTISRDNSKNTLYLQMNSLRAEDTAVYYCARADYGGETYAFDPWGQGTLVTVSS
VL: DIQMTQSPSSLSASVGDRVTITCQASQSISSYLNWYQQKPGKAPKLLIYSASTLASGVPSRFSGSGSGTDFTLTISSLQPEDFATYYCQQGYSDSNIDNVFGGGTKVEIK
notes: also called Ab 25-71; clone 25-71
binds: all assays above
